Experimental findings from the supplement of paper PMC10849652 are described below.

By UniProt entry, the sequences of proteins in these tests, tags left out. Where a name states a change or a piece, a line headed by the entry shows the natural chain unless it says otherwise.
UniProt Q8NEC7: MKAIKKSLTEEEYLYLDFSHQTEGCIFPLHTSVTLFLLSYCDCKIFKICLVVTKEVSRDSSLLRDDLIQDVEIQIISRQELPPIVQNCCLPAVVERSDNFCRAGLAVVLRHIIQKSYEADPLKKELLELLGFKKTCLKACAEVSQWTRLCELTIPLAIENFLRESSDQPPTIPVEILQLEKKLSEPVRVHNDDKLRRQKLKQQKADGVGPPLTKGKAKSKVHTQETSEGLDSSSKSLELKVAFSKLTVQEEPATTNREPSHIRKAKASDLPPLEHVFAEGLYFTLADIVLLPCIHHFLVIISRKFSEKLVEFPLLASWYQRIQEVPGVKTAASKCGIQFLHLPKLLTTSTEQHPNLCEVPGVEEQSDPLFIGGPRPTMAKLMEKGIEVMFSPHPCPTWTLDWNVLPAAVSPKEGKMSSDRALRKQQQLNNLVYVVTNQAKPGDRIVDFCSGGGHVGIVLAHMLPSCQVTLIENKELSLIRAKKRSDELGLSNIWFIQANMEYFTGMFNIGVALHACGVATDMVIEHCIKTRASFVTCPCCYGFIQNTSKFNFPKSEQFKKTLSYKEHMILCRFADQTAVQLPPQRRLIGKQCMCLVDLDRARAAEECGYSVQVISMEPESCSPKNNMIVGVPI
UniProt Q9Y5Z7: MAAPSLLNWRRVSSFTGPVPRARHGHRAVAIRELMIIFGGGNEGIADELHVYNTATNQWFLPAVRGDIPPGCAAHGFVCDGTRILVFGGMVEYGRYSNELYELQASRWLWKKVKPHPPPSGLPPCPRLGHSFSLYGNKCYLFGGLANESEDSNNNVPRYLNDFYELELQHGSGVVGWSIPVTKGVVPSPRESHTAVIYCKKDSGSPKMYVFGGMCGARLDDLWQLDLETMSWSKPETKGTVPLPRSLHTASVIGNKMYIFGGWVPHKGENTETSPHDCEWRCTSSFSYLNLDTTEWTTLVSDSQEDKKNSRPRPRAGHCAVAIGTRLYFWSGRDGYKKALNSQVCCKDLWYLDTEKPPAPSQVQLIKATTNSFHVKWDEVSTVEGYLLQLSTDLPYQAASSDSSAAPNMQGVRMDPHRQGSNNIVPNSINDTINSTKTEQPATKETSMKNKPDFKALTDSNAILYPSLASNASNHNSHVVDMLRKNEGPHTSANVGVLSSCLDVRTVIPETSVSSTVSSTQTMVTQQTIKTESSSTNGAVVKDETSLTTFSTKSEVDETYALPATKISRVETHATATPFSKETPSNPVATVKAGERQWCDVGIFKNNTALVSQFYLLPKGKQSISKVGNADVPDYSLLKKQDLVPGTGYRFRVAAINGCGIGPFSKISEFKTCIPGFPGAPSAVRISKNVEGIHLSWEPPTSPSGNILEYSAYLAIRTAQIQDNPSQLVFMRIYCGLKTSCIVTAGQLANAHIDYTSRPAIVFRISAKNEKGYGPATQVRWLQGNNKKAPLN
UniProt O60443: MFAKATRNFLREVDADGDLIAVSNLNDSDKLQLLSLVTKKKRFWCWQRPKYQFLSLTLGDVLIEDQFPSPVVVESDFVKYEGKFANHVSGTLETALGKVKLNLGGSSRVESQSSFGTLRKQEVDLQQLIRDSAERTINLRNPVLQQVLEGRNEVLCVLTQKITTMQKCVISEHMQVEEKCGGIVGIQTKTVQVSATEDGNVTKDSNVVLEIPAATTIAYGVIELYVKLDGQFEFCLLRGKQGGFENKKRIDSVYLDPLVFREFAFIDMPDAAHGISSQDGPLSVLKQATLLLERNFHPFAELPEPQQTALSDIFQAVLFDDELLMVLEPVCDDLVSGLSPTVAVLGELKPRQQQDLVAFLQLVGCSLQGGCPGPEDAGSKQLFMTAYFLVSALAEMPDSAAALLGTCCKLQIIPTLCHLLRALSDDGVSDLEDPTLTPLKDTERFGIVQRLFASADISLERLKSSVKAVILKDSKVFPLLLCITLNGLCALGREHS
UniProt Q4V328: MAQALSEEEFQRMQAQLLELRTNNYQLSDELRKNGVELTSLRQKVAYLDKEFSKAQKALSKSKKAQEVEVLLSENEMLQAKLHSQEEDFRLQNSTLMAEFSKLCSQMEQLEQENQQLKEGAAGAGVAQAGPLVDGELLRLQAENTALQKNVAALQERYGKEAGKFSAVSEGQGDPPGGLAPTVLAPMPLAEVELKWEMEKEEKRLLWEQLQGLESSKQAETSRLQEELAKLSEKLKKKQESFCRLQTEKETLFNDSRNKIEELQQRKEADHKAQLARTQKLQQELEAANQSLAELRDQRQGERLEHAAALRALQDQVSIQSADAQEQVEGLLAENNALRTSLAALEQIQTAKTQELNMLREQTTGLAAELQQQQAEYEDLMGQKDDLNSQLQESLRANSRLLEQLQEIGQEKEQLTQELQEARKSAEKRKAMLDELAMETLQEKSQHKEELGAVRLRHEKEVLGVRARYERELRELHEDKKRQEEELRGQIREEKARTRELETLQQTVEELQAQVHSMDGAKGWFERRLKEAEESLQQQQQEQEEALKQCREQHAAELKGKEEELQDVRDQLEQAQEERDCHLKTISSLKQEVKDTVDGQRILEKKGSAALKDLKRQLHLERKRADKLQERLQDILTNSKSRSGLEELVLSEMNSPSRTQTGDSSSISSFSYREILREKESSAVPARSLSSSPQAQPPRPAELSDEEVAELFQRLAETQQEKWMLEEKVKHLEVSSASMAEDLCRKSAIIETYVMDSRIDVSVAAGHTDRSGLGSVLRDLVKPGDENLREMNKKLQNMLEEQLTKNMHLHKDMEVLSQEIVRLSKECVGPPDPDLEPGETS
UniProt Q9Y4H4: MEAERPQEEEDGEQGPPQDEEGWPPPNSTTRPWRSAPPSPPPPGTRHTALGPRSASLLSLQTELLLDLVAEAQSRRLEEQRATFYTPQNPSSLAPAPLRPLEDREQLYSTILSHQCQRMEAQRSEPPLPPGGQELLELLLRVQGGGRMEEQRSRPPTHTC
UniProt Q9Y5Q9: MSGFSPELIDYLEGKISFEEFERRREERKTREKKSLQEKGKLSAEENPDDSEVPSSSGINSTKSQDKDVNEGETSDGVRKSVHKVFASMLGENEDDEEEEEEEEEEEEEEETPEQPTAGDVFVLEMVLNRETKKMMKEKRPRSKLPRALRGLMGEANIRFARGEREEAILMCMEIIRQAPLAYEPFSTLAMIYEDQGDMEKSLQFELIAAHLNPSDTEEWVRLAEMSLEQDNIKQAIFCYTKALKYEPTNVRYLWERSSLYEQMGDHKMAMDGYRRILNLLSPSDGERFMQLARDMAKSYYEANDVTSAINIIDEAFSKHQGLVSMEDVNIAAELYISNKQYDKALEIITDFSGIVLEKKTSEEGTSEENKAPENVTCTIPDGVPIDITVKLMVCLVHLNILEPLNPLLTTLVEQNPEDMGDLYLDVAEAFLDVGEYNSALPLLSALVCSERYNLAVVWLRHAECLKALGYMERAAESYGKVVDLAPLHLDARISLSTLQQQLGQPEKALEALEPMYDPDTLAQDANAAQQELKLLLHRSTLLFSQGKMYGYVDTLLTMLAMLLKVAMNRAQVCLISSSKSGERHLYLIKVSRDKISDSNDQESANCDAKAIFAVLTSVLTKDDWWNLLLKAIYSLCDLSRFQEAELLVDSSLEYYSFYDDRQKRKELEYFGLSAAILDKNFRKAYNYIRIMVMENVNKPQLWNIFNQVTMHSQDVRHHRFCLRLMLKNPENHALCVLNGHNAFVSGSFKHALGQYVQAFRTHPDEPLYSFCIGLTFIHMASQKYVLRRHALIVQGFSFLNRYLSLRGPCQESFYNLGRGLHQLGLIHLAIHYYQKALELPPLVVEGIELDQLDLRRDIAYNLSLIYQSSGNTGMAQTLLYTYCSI
UniProt Q96NT3: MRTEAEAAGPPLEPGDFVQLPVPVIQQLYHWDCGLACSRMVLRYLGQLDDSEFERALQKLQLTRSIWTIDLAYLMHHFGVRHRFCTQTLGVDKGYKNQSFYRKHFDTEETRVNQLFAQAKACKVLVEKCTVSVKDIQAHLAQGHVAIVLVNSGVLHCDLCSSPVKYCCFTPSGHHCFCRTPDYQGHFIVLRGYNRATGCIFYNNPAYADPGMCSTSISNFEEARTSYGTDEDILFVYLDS
UniProt P28799: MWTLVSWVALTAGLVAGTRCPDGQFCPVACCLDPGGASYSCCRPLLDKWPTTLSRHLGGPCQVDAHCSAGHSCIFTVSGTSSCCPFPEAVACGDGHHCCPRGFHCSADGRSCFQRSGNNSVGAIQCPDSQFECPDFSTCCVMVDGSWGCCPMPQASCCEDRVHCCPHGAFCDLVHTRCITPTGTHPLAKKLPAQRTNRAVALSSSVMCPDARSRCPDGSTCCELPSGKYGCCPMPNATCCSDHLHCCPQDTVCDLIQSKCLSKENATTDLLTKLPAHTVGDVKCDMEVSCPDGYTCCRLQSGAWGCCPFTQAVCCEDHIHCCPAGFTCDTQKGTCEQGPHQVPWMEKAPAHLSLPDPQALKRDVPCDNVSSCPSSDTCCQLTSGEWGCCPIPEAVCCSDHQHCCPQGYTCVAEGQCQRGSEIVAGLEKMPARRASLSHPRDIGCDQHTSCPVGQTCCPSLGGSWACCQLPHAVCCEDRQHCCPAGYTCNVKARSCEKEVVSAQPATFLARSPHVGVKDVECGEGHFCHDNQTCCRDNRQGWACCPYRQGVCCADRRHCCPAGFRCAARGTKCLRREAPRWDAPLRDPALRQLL
UniProt P28161: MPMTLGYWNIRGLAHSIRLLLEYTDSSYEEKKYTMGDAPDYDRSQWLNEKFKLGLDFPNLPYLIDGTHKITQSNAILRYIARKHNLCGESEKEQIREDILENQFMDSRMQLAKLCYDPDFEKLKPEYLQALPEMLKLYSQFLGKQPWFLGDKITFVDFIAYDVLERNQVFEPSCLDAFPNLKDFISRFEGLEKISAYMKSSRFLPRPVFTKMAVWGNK
UniProt P41594, whole entry, looked up: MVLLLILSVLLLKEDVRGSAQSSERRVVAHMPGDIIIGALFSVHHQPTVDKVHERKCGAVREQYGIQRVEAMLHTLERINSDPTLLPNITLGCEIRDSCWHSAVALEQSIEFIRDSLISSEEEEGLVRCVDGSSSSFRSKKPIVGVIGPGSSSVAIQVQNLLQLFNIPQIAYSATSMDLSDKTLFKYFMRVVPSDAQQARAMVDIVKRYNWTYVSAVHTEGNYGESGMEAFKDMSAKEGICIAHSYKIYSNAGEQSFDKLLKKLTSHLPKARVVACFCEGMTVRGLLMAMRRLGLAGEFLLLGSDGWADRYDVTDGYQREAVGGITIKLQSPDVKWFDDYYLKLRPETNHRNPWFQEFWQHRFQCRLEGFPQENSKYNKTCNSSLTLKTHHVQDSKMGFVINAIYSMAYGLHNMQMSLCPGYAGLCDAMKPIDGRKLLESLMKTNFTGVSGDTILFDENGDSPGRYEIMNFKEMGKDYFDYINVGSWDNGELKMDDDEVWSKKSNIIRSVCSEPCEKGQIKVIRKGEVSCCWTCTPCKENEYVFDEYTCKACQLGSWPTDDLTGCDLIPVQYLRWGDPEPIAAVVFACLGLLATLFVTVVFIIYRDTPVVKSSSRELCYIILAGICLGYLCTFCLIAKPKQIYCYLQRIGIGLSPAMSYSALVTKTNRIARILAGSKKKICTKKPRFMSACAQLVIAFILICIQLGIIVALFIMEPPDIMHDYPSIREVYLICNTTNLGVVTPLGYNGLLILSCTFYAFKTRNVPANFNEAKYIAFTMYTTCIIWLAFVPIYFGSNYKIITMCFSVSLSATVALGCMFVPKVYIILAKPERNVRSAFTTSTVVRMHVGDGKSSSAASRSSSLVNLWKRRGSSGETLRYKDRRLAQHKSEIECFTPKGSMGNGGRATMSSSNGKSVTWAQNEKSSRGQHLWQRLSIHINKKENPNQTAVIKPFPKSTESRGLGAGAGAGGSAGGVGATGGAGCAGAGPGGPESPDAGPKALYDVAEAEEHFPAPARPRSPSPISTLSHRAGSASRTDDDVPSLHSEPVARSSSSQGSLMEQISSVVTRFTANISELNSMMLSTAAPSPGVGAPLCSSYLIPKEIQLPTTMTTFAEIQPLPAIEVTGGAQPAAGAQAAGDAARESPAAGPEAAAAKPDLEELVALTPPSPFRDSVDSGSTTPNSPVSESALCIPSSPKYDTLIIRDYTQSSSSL
UniProt O15488: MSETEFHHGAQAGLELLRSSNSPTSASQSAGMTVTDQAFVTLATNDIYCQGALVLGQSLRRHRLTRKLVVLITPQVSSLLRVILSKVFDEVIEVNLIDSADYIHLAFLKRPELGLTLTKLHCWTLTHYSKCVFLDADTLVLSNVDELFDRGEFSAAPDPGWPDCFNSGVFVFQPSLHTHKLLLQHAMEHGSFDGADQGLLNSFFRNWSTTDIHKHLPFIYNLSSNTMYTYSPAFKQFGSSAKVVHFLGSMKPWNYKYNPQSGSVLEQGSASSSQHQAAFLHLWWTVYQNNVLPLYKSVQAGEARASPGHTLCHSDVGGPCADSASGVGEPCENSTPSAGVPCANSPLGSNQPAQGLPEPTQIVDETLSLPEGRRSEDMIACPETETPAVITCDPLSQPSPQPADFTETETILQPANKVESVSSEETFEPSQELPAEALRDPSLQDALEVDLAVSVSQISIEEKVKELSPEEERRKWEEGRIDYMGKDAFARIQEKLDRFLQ

The list shows a part of the results.

Compound in one assay: O=C1NC(=O)C(c2cnc3ccccn23)=C1c1cn2c3c(cc(F)cc13)CN(C(=O)N1CCCCC1)CC2
Briefly: log2 fold change, soluble protein after heating vs DMSO (PISA); higher = thermal stabilisation; K562 lysate, 10 uM; active = over 0.2 and 3.5 SD of the protein, either way, in both replicates (recomputed). An outline of the steps: (§1)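 K562 pellets were dounce-homogenised in PBS pH 7.4 with 1 mM MgCl2, and the crude extract at 1 mg/mL protein was treated with 10 μM compound for 30 min. Aliquots were heated for 3 min across 48°C-58°C, pooled, and brought to 0.5% NP-40 at 4°C; soluble protein was the supernatant after 21,000xg for 90 min. Soluble protein was quantified by TMTpro 16plex LC-MS/MS with channel sums equalised, and reported as log2 fold change in thermal stability against DMSO controls, with values from duplicates.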
With HAUS1 (UniProt Q96CS2), the log2 fold change is inactive: 0.017. For GRAMD1A (UniProt Q96CP6), the log2 fold change is inactive: 0.378. Still for that read-out and setting: for GSTCD (UniProt Q8NEC7) the value was inactive: -0.027; for H4C1 (UniProt P62805), inactive: -0.038.

With HBD (UniProt E9PEW8), the log2 fold change is inactive: -0.079. On to GPX4 (UniProt P36969), for which the log2 fold change is inactive: -0.023.

On to GTF2H2C (UniProt Q6P1K8), for which the log2 fold change was inactive: 0.148.

Turning to HBG2 (UniProt P69892), the log2 fold change was inactive: 0.029. Same read-out and setting: for HCFC2 (UniProt Q9Y5Z7) the value was inactive: -0.329; for H1-0 (UniProt P07305), inactive: 0.051. Same read-out and setting: for GSDME (UniProt O60443) the value was inactive: -0.247. The same measure, in the same setting: for H1-2 (UniProt P16403) the value was inactive: 0.037; for HAL (UniProt P42357), inactive: 0.408; for HDAC1 (UniProt Q13547), inactive: -0.015. In the case of H3-2 (UniProt Q5TEC6), the log2 fold change is inactive: -0.079. As to HARS2 (UniProt P49590), the log2 fold change was inactive: 0.08. HADHB (UniProt P55084): the log2 fold change is inactive: 0.269. Still for that read-out and setting: for HDAC8 (UniProt Q9BY41) the value was inactive: -0.064; for H3-3A (UniProt P84243), inactive: 0.026. Still for that read-out and setting: for GTF3C2 (UniProt Q8WUA4) the value was inactive: -0.008; for GRIPAP1 isoform 2 (UniProt Q4V328), inactive: 0.005; for GPSM3 (UniProt Q9Y4H4), inactive: -0.022.

On to HAGH isoform 2 (UniProt Q16775), for which the log2 fold change was inactive: 0.07. The same measure, in the same setting: for GTF3C3 (UniProt Q9Y5Q9) the value was inactive: 0.011. With HADHA (UniProt P40939), the log2 fold change is inactive: 0.302. As to GUCD1 isoform 3 (UniProt Q96NT3), the log2 fold change is inactive: -0.014. Take HDAC2 (UniProt Q92769): the log2 fold change was inactive: 0.057. The same measure, in the same setting: for GTF2H2 (UniProt Q13888) the value was inactive: 0.044; for GRN (UniProt P28799), inactive: 0.05; for H6PD (UniProt O95479), inactive: 0.239. For the target GSDMD (UniProt P57764), the log2 fold change is inactive: -0.167. Still for that read-out and setting: for GUK1 isoform 2 (UniProt Q16774) the value was inactive: 0; for GSS (UniProt P48637), inactive: -0.004.

On to GUF1 (UniProt Q8N442), for which the log2 fold change was inactive: 0.043. Consider GRIPAP1 (UniProt Q4V328), for which the log2 fold change is inactive: 0.002.

Compound in the next assay: c1cn2cc(-c3ccc4cn[nH]c4c3)nc(Nc3ccc(N4CCOCC4)cc3)c2n1 [entospletinib]
The assay is described as above. An outline of the steps:
as §1
As to HAUS1 (UniProt Q96CS2), the log2 fold change is inactive: 0.001. Same read-out and setting: for GSTCD (UniProt Q8NEC7) the value was inactive: -0.066; for H4C1 (UniProt P62805), inactive: -0.057. On the same count and under the same terms, for GPX4 (UniProt P36969) the value was inactive: 0.037; for GTF2H2C (UniProt Q6P1K8), inactive: -0.136; for HBG2 (UniProt P69892), inactive: -0.049. Same read-out and setting: for GTPBP6 (UniProt O43824) the value was inactive: 0.255; for GSDME (UniProt O60443), inactive: 0.069. On to H1-2 (UniProt P16403), for which the log2 fold change was inactive: 0.018. Take HAL (UniProt P42357): the log2 fold change was inactive: -0.289. Same read-out and setting: for HDAC1 (UniProt Q13547) the value was inactive: 0.008.

For the target H3-2 (UniProt Q5TEC6), the log2 fold change was inactive: -0.014. With HARS2 (UniProt P49590), the log2 fold change is inactive: -0.104.

Regarding HADHB (UniProt P55084), the log2 fold change was inactive: 0.063. Turning to HDAC8 (UniProt Q9BY41), the log2 fold change is inactive: 0.001. On the same count and under the same terms, for H3-3A (UniProt P84243) the value was inactive: -0.035. Same read-out and setting: for GTF3C2 (UniProt Q8WUA4) the value was inactive: -0.044. As to GSTM2 (UniProt P28161), the log2 fold change is inactive: 0.044. With GTF3C3 (UniProt Q9Y5Q9), the log2 fold change was inactive: -0.052.

Turning to HADHA (UniProt P40939), the log2 fold change was inactive: 0.027. As to HDAC2 (UniProt Q92769), the log2 fold change was inactive: -0.005. On to GTF2H2 (UniProt Q13888), for which the log2 fold change is inactive: 0.074.

Consider GRN (UniProt P28799), for which the log2 fold change was inactive: -0.029.

On to H6PD (UniProt O95479), for which the log2 fold change was inactive: -0.043. Regarding GRM5 (UniProt P41594), the log2 fold change was inactive: -0.096. Still for that read-out and setting: for GYG2 (UniProt O15488) the value was inactive: 0.003; for GUK1 isoform 2 (UniProt Q16774), inactive: 0.039; for GSS (UniProt P48637), inactive: 0. Same read-out and setting: for GUF1 (UniProt Q8N442) the value was inactive: -0.006. On to GRIPAP1 (UniProt Q4V328), for which the log2 fold change is inactive: -0.01.
